The other results are listed elsewhere or left out.
Compound: CC1Cc2ccccc2N1C(=O)C1CCCN(C1)C(=O)CCl (mixture of isomers) [TRIM25 ligand 11 (diastereomer mixture)]
Experiment: probe-labelled cysteine peptide fold change vs DMSO (competition) (log2 fold change); higher = less target engagement (more negative = stronger competition)
Settings: THP-1, incubation time: 4 h
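Note: competitive chemoproteomic profiling in live THP-1 cells with an iodoacetamide desthiobiotin (IA-DTB) probe, comparing probe-labelled peptide intensities in compound-treated cells against DMSO-treated controls.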

Amino acid sequences for entries named in this document (tags omitted). A change or cut given only in a name is not applied to a line headed by its entry.
UniProt Q6PGP7, whole entry, looked up: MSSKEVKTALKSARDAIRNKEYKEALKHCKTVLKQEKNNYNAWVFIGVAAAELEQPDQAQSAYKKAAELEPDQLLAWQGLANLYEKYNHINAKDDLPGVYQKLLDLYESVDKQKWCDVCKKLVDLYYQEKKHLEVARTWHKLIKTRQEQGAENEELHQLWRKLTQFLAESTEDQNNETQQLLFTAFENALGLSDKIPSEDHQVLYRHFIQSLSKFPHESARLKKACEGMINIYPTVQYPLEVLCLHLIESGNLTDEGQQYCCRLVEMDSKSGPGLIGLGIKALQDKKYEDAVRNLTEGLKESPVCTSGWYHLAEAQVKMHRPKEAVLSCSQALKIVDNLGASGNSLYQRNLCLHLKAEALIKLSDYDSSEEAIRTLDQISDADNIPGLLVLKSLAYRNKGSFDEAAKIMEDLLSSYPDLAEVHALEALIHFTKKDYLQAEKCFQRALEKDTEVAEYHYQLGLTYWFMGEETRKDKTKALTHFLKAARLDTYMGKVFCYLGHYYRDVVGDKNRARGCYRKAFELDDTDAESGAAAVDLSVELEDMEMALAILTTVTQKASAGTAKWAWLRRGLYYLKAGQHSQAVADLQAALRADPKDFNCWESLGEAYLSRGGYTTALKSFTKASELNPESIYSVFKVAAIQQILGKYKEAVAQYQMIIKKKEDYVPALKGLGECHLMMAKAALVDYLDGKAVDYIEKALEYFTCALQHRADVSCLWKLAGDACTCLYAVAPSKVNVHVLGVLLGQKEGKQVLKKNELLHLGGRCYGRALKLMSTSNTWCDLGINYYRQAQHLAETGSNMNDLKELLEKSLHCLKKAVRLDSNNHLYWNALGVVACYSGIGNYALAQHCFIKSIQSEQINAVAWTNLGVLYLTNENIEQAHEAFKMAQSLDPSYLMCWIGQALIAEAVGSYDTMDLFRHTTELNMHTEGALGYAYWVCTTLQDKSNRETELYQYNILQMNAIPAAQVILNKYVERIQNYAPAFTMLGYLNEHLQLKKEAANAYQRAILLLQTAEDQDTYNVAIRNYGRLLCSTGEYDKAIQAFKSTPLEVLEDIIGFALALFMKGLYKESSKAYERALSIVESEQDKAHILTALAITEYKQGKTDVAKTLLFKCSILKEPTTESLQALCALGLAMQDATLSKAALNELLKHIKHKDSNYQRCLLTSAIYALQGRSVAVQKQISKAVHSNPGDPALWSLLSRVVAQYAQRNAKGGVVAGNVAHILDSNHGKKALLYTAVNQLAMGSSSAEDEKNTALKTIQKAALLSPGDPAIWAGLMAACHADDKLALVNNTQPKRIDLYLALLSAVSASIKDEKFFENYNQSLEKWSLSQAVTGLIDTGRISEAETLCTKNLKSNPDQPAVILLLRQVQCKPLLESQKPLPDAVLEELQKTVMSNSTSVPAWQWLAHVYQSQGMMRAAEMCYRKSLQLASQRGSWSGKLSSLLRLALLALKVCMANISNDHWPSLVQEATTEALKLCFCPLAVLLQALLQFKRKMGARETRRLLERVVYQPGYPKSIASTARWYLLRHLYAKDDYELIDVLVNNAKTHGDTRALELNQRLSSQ
UniProt Q2NL82: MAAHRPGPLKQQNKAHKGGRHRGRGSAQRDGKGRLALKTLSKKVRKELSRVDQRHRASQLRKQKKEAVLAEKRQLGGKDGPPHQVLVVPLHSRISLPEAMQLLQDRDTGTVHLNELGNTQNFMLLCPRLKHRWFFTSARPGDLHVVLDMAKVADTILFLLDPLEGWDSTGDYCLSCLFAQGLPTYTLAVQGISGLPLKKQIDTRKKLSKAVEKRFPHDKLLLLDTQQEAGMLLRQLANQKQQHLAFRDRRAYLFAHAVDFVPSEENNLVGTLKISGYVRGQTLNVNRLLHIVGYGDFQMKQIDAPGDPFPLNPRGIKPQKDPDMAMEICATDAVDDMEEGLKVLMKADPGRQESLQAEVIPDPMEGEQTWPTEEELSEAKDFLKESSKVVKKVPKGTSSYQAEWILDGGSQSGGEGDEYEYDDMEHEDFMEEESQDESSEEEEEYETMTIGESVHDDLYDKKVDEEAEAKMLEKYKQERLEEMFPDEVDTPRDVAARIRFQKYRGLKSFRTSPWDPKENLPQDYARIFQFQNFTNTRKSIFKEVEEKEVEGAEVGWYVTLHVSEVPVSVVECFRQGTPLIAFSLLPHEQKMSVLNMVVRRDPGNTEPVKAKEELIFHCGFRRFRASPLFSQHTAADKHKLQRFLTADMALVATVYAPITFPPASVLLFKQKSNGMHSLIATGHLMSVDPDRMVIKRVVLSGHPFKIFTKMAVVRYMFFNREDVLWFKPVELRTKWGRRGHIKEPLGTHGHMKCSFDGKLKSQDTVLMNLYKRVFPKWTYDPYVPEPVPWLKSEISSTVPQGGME
UniProt Q96RT7, whole entry, looked up: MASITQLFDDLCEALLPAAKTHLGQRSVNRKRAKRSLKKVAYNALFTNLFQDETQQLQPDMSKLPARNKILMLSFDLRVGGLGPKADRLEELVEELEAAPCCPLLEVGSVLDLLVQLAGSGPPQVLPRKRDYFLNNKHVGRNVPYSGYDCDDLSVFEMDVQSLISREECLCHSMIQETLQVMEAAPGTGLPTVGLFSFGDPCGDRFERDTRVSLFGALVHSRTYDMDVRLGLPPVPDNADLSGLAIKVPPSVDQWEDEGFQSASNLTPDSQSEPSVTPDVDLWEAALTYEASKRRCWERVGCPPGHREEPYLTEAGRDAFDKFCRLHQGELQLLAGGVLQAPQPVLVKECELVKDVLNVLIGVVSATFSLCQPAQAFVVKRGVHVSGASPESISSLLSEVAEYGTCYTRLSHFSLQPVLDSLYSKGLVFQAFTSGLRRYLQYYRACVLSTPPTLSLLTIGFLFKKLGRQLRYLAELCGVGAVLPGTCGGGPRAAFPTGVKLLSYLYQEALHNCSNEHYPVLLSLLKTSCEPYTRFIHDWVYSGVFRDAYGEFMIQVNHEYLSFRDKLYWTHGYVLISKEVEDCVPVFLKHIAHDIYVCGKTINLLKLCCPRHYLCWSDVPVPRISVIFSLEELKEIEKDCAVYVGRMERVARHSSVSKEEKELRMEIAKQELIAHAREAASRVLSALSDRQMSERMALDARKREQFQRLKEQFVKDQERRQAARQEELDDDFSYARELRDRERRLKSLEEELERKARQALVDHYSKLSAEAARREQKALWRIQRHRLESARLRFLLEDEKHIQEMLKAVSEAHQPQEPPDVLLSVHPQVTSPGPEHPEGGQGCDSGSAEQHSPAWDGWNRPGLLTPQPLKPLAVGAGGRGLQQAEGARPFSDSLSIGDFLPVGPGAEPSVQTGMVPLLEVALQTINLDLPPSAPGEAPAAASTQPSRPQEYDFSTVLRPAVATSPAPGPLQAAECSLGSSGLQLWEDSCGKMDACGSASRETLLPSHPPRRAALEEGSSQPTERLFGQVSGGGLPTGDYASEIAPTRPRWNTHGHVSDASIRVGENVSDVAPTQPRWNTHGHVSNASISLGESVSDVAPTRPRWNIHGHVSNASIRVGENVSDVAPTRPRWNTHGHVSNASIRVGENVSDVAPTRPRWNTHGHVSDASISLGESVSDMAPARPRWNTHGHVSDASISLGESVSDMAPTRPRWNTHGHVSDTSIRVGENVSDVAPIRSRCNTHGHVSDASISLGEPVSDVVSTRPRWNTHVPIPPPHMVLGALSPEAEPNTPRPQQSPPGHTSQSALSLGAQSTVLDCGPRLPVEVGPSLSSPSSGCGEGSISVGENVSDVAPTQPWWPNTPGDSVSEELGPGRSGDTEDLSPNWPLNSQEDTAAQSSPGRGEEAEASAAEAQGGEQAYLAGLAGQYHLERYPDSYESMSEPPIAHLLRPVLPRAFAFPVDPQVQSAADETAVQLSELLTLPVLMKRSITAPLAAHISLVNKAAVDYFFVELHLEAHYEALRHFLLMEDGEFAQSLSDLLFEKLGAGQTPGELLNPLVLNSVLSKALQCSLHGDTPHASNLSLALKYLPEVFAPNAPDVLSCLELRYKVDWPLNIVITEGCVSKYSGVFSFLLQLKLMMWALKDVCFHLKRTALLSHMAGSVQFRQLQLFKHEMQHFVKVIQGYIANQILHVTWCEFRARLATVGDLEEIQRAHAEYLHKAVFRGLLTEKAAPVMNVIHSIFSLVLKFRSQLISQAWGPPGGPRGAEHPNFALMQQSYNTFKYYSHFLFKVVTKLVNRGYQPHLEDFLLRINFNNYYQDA
UniProt Q9UGJ1, whole entry, looked up: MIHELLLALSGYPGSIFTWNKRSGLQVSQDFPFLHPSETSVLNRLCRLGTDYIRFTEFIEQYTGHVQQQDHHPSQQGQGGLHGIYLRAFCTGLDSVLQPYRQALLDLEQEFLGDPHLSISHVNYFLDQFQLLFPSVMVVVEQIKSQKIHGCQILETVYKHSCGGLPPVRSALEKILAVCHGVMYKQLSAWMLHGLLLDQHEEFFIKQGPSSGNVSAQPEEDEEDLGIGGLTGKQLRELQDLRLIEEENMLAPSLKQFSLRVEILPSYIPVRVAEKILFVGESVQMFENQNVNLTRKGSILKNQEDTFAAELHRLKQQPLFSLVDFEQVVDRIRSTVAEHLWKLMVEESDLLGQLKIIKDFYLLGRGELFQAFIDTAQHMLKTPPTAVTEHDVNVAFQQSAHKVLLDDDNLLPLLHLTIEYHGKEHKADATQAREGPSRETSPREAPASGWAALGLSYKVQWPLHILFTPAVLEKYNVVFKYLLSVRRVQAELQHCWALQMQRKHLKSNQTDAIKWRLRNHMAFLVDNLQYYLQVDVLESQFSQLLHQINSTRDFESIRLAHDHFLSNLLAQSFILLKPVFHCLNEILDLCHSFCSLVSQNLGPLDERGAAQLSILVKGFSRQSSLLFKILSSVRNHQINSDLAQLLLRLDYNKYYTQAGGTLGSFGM
UniProt P43897: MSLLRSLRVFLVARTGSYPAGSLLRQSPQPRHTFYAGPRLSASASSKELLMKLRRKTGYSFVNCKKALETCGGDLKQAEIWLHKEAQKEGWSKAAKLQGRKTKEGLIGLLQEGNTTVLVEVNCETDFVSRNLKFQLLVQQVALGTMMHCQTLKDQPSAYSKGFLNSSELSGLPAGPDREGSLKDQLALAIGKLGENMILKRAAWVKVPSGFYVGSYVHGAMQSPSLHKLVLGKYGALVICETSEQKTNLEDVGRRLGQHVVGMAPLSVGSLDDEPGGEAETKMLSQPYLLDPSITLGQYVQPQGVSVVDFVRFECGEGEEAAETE
UniProt Q14166: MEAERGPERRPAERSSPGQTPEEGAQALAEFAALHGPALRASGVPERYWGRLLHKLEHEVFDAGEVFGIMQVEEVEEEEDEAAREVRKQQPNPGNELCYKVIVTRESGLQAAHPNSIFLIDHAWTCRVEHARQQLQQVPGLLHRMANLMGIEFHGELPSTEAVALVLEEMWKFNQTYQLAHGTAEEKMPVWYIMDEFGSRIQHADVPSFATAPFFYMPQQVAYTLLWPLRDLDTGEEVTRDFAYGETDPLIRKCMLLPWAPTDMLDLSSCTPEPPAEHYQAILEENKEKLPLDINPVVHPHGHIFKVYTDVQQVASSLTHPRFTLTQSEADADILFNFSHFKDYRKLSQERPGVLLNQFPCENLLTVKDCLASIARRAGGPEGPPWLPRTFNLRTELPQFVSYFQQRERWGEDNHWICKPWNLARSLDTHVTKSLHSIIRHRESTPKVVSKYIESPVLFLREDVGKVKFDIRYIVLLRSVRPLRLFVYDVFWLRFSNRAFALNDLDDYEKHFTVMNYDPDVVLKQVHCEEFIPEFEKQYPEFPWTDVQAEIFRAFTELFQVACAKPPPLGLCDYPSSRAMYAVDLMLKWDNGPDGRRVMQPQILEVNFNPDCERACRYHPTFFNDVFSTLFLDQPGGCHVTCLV
UniProt Q96RR1: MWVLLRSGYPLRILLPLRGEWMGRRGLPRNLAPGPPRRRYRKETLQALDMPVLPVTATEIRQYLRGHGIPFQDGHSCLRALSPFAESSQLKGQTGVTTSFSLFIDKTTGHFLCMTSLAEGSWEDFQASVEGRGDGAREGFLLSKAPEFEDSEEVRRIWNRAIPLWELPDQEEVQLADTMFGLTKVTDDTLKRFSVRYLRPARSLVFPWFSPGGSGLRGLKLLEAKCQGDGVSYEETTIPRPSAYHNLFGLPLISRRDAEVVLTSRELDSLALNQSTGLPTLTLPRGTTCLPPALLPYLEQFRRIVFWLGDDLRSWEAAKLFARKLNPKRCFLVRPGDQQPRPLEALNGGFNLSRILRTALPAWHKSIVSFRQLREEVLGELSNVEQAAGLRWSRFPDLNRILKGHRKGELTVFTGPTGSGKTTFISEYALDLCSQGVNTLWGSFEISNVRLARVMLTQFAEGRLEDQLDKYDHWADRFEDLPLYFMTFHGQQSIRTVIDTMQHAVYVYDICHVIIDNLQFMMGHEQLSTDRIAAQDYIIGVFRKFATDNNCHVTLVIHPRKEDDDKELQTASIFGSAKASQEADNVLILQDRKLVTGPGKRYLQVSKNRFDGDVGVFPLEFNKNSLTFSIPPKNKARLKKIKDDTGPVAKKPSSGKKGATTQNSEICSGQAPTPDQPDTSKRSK

| Target | probe-labelled cysteine peptide fold change (10 µM) | probe-labelled cysteine peptide fold change (50 µM) |
| --- | --- | --- |
| TSSC4_Q9Y5U2_99_SRDIFDCLEGAAR (UniProt Q9Y5U2) | -0.397 | -0.414 |
| TTC7A_Q9ULT0_77_LLLAEALLEQCLK (UniProt Q9ULT0) | 0.394 | 0.169 |
| TTC37_Q6PGP7_1349_ISEAETLCTK (UniProt Q6PGP7) | 0.0652 | -0.146 |
| TTC37_Q6PGP7_497_VFCYLGHYYR (UniProt Q6PGP7) | 0.00325 | 0.162 |
| TUT4_Q5TAX3_64_QNDICIEK (UniProt Q5TAX3) | 0.0237 | -0.225 |
| TUBB6_Q9BUF5_127_ECEHCDCLQGFQLTHSLGGGTGSGMGTLLISK (UniProt Q9BUF5) | 0.0152 | 0.0618 |
| TUFM_P49411_290_GDECELLGHSK (UniProt P49411) | 0.0556 | -0.156 |
| TUBGCP3_Q96CW5_497_SINFLHQVCHDQTPTTK (UniProt Q96CW5) | 0.0964 | -0.0933 |
| TTF2_Q9UNY4_13_CPEHGTFCFLK (UniProt Q9UNY4) | -0.00214 | -0.00897 |
| TUBB6_Q9BUF5_12_MREIVHIQAGQCGNQIGTK (UniProt Q9BUF5) | -0.0592 | -0.175 |
| TSR1_Q2NL82_329_DPDMAMEICATDAVDDMEEGLK (UniProt Q2NL82) | -0.133 | -0.224 |
| TSR1_Q2NL82_618_EELIFHCGFR (UniProt Q2NL82) | 0.163 | 0.18 |
| TUBGCP6_Q96RT7_302_VGCPPGHREEPYLTEAGR (UniProt Q96RT7) | 0.0602 | 0.00573 |
| TRRAP_Q9Y4A5_3535_IYPYLVMNDACLTESR (UniProt Q9Y4A5) | -0.171 | 0.0166 |
| TTC27_Q6P3X3_514_ETPSLYCLLGDVLGDHSCYDK (UniProt Q6P3X3) | -0.201 | -0.392 |
| TRPM2_O94759_693_AIGVFTECYR (UniProt O94759) | 0.0381 | 0.0798 |
| TRMT6_Q9UJA5_243_AATACFGFPK (UniProt Q9UJA5) | -0.0779 | -0.123 |
| TUBGCP4_Q9UGJ1_151_IHGCQILETVYK (UniProt Q9UGJ1) | -0.0417 | 0.202 |
| TTYH3_Q9C0H2_486_CENTPLIGR (UniProt Q9C0H2) | -0.0936 | -0.00547 |
| TRRAP_Q9Y4A5_949_AIETALDCLK (UniProt Q9Y4A5) | 0.0616 | 0.000649 |
| TRPV2_Q9Y5S1_332_KFTEWCYGPVR (UniProt Q9Y5S1) | 0.0298 | -0.129 |
| TSFM_P43897_315_FECGEGEEAAETE (UniProt P43897) | 0.358 | 0.0116 |
| TTLL12_Q14166_370_DCLASIAR (UniProt Q14166) | -0.0183 | -0.00856 |
| TTC39C_Q8N584_87_MQLACDDLK (UniProt Q8N584) | 0.0875 | -0.134 |
| TUBGCP6_Q96RT7_1601_YLPEVFAPNAPDVLSCLELR (UniProt Q96RT7) | -0.0378 | 0.0612 |
| TUBB6_Q9BUF5_12_EIVHIQAGQCGNQIGTK (UniProt Q9BUF5) | -0.0689 | -0.0846 |
| TTLL12_Q14166_361_PGVLLNQFPCENLLTVK (UniProt Q14166) | -0.15 | -0.1 |
| TRNAU1AP_Q9NX07_48_LTGIPAGYCFVEFADLATAEK (UniProt Q9NX07) | 0.308 | 0.204 |
| TWNK_Q96RR1_330_CFLVRPGDQQPRPLEALNGGFNLSR (UniProt Q96RR1) | 0.243 | -0.124 |
| TRMT61A_Q96FX7_209_FCSFSPCIEQVQR (UniProt Q96FX7) | -0.023 | -0.323 |

Look-ups from the entries so far:
Value for TRRAP_Q9Y4A5_3535_IYPYLVMNDACLTESR (UniProt Q9Y4A5) under probe-labelled cysteine peptide fold change (50 µM): 0.0166
Value for TUBGCP4_Q9UGJ1_151_IHGCQILETVYK (UniProt Q9UGJ1) under probe-labelled cysteine peptide fold change (50 µM): 0.202
